Measurements taken from paper PMC3514159.
Results are given in words; binding and its absence hold for the method and conditions named. Some results given as binding are weak or reduced against the parent protein; the word gives no strength.

The chains behind the UniProt entries cited, without tags or fusion partners.
UniProt P49639: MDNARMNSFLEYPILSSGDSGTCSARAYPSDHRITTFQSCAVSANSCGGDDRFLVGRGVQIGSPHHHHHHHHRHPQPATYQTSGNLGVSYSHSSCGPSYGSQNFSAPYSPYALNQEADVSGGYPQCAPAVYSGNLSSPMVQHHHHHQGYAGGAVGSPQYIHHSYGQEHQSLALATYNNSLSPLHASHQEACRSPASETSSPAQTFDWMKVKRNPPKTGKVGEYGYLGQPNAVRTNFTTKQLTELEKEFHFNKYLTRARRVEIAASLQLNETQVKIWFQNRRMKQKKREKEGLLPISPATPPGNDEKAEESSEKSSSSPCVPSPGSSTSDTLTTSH
UniProt Q8WUM4: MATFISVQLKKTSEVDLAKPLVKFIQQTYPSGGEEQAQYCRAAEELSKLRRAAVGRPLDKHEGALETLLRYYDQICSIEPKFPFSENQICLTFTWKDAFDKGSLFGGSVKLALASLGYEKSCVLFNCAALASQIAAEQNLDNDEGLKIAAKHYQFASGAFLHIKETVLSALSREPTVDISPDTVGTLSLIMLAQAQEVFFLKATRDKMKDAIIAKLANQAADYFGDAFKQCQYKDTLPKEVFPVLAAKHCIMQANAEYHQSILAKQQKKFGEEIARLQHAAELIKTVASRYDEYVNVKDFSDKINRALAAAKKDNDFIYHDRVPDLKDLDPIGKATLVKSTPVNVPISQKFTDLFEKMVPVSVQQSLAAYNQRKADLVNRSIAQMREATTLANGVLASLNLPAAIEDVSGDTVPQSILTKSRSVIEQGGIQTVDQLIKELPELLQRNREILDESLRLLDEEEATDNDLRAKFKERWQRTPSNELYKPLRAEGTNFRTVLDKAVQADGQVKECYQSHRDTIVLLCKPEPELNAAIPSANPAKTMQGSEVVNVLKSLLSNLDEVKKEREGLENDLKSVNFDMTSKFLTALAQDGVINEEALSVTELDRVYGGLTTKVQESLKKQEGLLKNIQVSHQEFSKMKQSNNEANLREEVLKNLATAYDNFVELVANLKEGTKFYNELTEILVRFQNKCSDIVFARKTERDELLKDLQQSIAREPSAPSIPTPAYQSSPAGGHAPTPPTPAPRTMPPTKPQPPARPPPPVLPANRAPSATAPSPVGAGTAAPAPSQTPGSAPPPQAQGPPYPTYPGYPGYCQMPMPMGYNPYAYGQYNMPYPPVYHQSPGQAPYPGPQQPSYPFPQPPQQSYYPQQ
UniProt Q9BYR7: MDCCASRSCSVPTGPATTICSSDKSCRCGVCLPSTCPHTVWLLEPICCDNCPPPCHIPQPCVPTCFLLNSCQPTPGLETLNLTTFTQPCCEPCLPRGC
UniProt P09022: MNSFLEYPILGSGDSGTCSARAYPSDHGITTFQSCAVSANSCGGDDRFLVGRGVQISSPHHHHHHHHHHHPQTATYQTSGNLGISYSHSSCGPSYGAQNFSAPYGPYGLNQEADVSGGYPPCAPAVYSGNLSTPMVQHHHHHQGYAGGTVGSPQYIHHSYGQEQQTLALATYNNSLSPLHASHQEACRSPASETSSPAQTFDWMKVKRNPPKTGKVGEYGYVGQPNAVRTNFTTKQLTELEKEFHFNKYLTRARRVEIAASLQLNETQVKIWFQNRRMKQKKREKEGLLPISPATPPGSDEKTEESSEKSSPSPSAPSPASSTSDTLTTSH

How the values were obtained:
Assay in all cases: two-hybrid; AD-Hoxa1 (Gal4 activation domain) in MATa Y8800 mated with the DB-hORF library in MATα Y8930; 30°C; selection on Sc-L-T-H + 1 mM 3AT, retest on Sc-L-T-H, Sc-L-T-A and Sc-L-T-H-A+3AT
[1] = molecular target: T1, dickkopf-like 1 (human) (UniProt Q9UK85)
T1 sequence: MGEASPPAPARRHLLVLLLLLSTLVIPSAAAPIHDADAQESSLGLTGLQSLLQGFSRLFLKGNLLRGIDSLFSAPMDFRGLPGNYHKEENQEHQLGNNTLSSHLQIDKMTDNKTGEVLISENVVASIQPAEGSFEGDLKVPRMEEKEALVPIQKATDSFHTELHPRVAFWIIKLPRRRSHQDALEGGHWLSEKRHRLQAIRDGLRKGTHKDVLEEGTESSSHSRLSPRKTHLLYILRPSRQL

[2] = molecular target: homeobox A1 (human) (UniProt P49639)
[3] = molecular target: programmed cell death 6 interacting protein (human) (UniProt Q8WUM4)
[4] = molecular target: T2, phosphofructokinase, muscle (human) (UniProt P08237)
T2 sequence: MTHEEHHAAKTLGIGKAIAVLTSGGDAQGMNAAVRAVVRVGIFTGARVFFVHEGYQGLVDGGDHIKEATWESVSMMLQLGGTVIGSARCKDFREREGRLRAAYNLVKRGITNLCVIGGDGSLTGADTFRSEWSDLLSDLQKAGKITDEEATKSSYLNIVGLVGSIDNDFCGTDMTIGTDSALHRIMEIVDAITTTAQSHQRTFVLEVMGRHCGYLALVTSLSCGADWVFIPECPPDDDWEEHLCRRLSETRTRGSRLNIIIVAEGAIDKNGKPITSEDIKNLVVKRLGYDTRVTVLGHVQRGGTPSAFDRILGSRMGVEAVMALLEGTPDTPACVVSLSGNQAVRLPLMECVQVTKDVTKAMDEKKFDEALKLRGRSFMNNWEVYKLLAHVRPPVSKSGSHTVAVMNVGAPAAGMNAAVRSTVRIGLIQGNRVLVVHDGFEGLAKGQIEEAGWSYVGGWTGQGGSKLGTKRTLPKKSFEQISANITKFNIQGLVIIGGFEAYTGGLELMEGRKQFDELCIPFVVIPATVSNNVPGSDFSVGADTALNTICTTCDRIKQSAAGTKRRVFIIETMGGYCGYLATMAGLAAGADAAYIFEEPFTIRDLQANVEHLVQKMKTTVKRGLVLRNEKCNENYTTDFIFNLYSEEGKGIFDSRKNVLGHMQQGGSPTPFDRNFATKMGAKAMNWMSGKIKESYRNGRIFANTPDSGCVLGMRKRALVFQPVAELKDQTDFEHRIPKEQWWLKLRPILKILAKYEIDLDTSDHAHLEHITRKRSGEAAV

[5] = molecular target: T3, phospholipid scramblase 4 (human) (UniProt Q9NRQ2)
T3 sequence: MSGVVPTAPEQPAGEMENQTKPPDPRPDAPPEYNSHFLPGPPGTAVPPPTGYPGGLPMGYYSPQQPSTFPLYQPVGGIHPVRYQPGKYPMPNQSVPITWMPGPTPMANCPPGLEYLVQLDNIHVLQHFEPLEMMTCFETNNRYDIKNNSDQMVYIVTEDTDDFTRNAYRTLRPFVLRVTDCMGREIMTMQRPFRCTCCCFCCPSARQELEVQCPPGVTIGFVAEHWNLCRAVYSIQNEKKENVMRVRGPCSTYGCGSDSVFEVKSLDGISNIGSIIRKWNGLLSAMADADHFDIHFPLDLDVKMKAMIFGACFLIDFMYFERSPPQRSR

[6] = molecular target: T4, RAB33A (member RAS oncogene family) (human) (UniProt Q14088)
T4 sequence: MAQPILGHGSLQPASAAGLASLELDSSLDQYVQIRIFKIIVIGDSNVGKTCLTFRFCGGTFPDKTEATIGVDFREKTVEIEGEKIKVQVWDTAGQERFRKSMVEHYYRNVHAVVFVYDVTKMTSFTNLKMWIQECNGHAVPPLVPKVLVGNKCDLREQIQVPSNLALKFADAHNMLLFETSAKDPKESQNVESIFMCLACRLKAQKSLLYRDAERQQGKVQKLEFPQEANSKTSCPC

[7] = molecular target: keratin associated protein 3-2 (human) (UniProt Q9BYR7)
[8] = molecular target: T5, keratin associated protein 4-12 (human) (UniProt Q9BQ66)
T5 sequence: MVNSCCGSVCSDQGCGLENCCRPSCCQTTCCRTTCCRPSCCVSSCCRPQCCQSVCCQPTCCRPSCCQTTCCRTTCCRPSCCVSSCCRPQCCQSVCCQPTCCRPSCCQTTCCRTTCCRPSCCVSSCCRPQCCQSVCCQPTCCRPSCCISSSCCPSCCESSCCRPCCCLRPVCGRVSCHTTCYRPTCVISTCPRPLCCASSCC

binding [1]: binds | binding [2]: binds | binding [4]: binds | binding [5]: binds | binding [6]: binds | binding [7]: binds | binding [8]: binds
Substance: Hoxa1 (from UniProt P09022 1-331)
binding [3]: binds
